The results in this text go back to publication PMC4557334.

Sequences of proteins named here, by UniProt entry; tags and fusion partners are left off.
UniProt P30154: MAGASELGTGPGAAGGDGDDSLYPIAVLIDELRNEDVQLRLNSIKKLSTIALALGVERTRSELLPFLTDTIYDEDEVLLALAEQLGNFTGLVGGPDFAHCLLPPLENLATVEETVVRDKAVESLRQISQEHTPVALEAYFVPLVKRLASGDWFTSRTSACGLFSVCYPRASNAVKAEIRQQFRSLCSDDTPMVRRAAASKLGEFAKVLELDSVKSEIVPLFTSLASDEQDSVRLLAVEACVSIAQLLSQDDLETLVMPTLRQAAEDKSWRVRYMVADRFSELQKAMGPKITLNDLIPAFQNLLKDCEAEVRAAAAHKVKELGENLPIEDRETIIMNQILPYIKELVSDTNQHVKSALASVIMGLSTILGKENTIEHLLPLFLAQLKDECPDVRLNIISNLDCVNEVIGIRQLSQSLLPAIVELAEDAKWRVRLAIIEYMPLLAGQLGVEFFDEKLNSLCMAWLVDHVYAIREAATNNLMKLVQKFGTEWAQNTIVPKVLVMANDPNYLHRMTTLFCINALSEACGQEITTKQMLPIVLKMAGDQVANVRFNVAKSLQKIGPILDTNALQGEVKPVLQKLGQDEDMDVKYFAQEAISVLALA
UniProt P30153: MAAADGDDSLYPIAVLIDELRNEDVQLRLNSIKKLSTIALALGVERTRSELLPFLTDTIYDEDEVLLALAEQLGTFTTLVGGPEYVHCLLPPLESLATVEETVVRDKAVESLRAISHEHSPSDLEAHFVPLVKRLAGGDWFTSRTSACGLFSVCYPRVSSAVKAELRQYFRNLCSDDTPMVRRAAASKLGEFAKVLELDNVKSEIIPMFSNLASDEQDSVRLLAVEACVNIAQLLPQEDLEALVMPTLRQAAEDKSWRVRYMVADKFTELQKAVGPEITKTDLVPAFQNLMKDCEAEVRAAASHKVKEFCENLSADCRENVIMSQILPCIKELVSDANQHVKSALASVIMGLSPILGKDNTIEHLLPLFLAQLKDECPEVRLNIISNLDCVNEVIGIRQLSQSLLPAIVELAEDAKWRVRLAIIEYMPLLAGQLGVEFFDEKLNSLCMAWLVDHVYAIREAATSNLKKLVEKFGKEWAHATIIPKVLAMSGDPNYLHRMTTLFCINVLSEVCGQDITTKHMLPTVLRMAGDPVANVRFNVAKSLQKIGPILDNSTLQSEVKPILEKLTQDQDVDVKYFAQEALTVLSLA
UniProt Q9Y4B6: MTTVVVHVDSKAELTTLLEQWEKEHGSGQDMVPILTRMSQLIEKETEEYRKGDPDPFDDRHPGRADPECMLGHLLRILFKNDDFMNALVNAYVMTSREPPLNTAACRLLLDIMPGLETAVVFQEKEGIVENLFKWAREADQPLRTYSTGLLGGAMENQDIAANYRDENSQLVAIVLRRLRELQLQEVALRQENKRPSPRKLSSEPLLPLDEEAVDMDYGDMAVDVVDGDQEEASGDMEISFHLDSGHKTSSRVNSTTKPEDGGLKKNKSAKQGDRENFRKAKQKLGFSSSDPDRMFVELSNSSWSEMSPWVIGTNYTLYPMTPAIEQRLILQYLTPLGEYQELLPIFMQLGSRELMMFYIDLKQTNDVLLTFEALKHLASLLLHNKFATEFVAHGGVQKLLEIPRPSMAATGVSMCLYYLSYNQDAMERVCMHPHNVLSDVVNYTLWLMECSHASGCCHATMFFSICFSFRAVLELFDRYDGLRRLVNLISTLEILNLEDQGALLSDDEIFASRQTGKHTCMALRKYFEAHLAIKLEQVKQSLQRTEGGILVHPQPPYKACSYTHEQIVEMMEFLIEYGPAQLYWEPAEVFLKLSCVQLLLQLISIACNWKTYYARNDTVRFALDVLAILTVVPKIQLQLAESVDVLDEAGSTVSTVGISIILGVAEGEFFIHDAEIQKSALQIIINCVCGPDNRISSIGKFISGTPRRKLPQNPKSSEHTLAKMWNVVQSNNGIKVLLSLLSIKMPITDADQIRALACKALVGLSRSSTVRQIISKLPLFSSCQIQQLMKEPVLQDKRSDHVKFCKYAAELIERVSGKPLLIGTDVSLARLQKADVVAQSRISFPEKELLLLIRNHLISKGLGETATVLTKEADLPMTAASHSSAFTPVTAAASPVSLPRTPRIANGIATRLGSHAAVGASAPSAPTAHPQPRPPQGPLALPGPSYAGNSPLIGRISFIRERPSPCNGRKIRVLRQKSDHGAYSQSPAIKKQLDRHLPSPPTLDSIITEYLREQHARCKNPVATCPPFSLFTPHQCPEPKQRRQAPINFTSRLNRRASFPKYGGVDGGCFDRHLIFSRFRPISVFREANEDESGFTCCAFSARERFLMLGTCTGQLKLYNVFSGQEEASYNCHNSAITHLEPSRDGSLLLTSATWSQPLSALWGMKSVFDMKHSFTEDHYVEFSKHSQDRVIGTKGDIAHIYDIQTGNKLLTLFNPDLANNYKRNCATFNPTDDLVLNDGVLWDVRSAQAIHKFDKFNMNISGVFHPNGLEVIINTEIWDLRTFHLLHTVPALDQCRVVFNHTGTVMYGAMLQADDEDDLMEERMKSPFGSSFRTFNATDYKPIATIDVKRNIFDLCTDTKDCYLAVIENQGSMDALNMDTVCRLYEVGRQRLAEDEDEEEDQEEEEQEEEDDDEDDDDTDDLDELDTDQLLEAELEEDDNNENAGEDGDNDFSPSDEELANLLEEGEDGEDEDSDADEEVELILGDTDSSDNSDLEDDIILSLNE

For one assay, the target named is FLAG-PPP2R1B (UniProt P30154). Put plainly: co-IP; HeLa cells co-transfected with MYC-DCAF1 and FLAG-PPP2R1A/B for 48 h; immunoprecipitation with anti-FLAG agarose beads, 4 °C 4 h, lysis buffer 50 mM Tris-HCl pH 7.5, 150 mM NaCl, 10% glycerol, 0.5% NP-40; western blot.
The target in a further assay is FLAG-PPP2R1A (UniProt P30153). The assay is described as above.
Assay [1] has as its target DCAF1 (Supplementary Fig. 7c) (UniProt Q9Y4B6). Put plainly: pull-down; PPP2R1A binding with different DCAF1 fragments (Supplementary Fig. 7c); DCAF1 or fragment pulled down, PPP2R1A detected.

These are yes or no findings as the source states them, for the method shown. In cells and extracts the contact can be indirect. Some entries that bind do so weakly or less than the wild type.

For the substance MYC-DCAF1 (from UniProt Q9Y4B6 1-1507), the binding result in the assay with FLAG-PPP2R1B and in the assay with FLAG-PPP2R1A was “binds” in each case.

On to “PPP2R1A (Supplementary Fig. 7c) (from UniProt P30153 1-589)”, for which, in assay [1], the binding entry is given as “binds”.
